Test results reported in the supplement of paper PMC10849652.
The other results are listed elsewhere or left out.

Protein sequences, listed by entry. Tags and fused reporters are not part of them. Lines headed by an entry give the natural chain unless they say otherwise; changes in a name come on top.
UniProt Q9Y303: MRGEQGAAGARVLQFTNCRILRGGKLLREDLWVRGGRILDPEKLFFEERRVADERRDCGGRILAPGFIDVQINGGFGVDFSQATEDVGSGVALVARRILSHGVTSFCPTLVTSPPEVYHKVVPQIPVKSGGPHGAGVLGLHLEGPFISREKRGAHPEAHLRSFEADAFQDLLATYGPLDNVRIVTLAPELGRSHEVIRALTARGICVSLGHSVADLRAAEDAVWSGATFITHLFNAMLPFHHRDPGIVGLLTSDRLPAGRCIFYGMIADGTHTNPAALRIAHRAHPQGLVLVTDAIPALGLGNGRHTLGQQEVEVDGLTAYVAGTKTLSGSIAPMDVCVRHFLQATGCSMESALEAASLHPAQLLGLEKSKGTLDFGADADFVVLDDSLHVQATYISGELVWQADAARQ
UniProt Q3SY69: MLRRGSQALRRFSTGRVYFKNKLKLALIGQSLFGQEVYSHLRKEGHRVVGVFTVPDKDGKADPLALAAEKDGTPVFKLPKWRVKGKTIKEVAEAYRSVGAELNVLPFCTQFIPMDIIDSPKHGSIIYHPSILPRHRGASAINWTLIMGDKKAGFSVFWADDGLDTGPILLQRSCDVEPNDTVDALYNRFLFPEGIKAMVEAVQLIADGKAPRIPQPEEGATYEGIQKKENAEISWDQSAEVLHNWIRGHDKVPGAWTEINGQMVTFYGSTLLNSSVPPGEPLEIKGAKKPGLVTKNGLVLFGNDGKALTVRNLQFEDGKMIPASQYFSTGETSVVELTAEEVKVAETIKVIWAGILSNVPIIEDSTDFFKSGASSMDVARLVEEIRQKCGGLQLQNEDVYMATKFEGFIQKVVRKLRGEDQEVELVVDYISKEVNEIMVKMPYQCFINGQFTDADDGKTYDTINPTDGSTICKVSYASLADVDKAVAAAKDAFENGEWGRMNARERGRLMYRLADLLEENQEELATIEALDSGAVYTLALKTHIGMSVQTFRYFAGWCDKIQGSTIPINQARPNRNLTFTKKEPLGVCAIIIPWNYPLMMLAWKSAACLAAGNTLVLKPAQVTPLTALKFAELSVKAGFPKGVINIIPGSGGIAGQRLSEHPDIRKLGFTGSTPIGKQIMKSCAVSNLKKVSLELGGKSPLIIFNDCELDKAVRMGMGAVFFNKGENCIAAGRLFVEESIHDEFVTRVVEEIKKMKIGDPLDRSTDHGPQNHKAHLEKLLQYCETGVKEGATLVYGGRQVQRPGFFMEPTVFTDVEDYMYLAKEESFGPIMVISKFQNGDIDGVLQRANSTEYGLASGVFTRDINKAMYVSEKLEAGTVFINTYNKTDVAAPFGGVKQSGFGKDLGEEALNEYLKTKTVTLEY
UniProt Q16186: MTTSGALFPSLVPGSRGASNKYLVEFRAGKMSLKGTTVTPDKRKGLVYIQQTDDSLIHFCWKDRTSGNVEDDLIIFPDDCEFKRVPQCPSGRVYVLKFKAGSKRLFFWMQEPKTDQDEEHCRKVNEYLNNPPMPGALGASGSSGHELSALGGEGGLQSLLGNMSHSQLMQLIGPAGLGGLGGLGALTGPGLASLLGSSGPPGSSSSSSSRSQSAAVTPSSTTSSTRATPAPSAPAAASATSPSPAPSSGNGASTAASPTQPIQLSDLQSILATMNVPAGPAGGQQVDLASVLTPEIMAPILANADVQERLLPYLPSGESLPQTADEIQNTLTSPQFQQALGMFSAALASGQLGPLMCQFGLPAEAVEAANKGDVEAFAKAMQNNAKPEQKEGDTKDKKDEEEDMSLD
UniProt Q3KRA9: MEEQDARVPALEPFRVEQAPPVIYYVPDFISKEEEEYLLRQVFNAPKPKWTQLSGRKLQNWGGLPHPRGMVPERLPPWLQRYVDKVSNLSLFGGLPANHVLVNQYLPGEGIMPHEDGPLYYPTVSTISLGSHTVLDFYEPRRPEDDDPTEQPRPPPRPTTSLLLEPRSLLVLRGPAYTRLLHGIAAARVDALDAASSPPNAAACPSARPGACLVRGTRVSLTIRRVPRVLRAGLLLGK
UniProt Q6RW13: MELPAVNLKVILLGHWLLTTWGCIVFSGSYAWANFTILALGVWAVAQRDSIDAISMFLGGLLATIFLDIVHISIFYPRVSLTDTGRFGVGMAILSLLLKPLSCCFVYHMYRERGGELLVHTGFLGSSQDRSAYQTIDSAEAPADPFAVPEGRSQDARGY
UniProt Q9UEY8: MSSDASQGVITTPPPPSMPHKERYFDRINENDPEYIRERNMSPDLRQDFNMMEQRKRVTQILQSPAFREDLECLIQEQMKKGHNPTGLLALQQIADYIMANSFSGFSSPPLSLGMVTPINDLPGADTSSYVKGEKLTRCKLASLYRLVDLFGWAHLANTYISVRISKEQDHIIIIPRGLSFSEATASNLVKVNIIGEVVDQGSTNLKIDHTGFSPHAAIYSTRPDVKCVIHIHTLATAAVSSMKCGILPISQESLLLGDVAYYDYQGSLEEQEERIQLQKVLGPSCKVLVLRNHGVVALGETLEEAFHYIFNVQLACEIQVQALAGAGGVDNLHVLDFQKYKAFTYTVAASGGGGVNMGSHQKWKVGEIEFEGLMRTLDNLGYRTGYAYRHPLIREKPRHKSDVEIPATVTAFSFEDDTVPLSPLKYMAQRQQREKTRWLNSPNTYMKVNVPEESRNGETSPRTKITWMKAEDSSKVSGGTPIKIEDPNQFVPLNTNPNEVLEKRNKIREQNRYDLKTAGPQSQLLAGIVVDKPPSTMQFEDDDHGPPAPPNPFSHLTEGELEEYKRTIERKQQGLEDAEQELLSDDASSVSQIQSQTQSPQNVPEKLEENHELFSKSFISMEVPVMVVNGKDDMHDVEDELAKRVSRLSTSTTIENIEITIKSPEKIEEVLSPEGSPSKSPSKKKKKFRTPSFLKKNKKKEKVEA
UniProt Q9BT22: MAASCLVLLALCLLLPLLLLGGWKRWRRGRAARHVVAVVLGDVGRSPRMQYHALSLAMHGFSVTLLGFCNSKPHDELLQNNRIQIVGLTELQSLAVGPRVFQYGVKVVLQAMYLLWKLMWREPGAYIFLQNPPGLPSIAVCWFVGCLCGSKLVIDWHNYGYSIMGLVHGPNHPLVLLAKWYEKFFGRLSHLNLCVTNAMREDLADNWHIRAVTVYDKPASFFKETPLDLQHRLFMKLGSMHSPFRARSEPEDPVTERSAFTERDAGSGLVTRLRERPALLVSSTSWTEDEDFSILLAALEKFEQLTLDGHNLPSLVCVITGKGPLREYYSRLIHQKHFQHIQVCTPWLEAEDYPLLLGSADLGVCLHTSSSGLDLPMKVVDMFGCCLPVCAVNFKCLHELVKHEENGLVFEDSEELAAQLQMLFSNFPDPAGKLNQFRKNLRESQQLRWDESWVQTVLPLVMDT
UniProt Q9Y3D8, whole entry, looked up: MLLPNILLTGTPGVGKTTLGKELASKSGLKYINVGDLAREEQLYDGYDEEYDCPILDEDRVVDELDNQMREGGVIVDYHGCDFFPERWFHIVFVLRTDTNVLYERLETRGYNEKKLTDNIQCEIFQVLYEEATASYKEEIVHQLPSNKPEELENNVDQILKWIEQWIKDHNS
UniProt O43488: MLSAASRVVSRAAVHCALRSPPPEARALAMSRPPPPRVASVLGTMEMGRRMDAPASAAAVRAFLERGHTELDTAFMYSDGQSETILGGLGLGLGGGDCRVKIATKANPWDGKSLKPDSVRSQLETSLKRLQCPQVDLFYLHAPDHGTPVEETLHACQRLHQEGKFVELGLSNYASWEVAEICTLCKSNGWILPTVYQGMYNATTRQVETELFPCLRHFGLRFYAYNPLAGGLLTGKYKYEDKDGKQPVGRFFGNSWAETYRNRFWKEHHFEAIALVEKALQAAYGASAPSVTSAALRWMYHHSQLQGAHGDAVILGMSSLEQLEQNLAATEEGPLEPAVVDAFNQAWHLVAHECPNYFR
UniProt Q92685: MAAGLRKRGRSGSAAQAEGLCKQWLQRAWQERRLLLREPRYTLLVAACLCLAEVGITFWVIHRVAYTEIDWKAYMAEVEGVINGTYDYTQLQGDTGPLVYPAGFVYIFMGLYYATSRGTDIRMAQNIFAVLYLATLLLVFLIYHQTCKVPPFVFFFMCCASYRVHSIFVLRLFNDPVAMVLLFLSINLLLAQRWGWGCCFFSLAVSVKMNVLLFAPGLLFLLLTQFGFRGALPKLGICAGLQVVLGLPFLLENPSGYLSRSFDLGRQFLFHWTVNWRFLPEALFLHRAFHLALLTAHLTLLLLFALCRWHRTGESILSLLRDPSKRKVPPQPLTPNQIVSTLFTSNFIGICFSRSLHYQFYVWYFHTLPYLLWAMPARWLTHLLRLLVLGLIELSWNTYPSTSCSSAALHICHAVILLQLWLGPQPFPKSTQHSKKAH
UniProt P30566: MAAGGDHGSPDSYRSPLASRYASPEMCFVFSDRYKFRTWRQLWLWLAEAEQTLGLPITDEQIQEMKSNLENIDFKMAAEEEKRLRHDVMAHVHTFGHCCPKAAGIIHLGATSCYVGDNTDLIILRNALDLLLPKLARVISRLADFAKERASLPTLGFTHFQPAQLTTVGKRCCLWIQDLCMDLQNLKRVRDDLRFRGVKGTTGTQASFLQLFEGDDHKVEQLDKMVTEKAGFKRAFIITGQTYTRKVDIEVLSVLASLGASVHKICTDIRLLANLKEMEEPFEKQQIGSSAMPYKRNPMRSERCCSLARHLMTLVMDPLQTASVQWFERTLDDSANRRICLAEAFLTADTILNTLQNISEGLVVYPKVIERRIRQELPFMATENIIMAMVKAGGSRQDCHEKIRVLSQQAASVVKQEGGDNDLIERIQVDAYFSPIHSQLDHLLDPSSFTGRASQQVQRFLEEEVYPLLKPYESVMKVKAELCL
UniProt P09972: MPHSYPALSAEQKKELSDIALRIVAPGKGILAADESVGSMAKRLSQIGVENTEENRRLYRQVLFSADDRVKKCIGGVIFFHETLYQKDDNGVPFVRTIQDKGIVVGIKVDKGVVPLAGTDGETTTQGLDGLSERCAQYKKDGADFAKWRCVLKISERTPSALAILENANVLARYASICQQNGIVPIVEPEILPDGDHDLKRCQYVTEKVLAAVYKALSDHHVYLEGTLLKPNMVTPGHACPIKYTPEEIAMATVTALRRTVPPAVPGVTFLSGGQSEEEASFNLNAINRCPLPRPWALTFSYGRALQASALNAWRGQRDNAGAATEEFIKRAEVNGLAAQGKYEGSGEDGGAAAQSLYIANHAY
UniProt Q01432: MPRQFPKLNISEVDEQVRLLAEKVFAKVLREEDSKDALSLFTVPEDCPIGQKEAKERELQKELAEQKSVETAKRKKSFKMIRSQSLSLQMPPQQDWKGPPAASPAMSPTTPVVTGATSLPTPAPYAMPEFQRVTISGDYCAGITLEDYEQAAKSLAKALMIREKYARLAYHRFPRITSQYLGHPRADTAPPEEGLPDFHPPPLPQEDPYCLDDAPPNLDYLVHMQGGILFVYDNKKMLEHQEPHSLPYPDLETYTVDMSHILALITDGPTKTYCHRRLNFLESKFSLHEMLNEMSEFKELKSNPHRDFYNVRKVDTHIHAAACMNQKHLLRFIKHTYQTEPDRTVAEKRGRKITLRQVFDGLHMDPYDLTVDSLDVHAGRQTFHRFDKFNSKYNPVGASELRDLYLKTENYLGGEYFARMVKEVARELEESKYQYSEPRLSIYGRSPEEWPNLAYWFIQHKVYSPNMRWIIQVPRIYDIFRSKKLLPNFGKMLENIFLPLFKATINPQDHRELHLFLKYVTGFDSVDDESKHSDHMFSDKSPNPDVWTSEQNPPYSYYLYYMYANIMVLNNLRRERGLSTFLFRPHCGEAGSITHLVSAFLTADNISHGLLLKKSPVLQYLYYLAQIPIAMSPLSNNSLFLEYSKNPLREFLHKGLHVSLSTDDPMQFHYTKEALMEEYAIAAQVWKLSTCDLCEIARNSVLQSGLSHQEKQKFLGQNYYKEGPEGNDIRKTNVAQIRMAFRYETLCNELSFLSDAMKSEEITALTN
UniProt Q96F25: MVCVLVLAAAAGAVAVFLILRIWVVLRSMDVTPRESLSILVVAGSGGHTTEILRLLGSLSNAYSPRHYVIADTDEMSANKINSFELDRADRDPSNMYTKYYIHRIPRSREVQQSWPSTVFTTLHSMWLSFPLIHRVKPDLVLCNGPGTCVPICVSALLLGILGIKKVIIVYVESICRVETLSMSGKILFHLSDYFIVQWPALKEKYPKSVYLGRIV
UniProt Q9NUQ2: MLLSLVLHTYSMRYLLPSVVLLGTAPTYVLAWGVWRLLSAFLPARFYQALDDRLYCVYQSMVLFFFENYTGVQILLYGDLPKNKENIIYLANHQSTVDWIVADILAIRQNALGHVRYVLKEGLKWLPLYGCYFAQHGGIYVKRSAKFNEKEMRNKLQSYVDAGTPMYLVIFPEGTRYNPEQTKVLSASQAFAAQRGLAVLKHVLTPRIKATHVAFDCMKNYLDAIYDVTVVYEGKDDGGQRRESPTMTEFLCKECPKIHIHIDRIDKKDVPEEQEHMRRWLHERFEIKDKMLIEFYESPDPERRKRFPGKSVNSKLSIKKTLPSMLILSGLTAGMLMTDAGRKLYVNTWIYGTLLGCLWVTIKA

Legend:
Test in all cases: log2 fold change, soluble protein after heating vs DMSO (PISA); higher = thermal stabilisation; K562 cells, 10 uM, 30 min; active = over 0.2 and 3.5 SD of the protein, either way, in both replicates (recomputed)
bafetinib = compound: Cc1ccc(NC(=O)c2ccc(CN3CC[C@H](N(C)C)C3)c(C(F)(F)F)c2)cc1Nc1nccc(-c2cncnc2)n1 [bafetinib]
Summary of the method: (§1)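 K562 cells at 2×10^6 cells/mL were treated with 10 μM compound for 30 min. Aliquots were heated for 3 min across 48°C-58°C, pooled, and extracted in PBS with 0.5% NP-40 at 4°C; soluble protein was the supernatant after 21,000xg for 90 min. Soluble protein was quantified by TMTpro 16plex LC-MS/MS with channel sums equalised, and reported as log2 fold change in thermal stability against DMSO controls, with values from duplicates.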

[1] = compound: Cc1cccc(CC(=O)N2CCc3c2ccc(-c2cn(C)c4ncnc(N)c24)c3F)n1
Summary of the method: as §1

nilotinib = compound: Cc1cn(-c2cc(NC(=O)c3ccc(C)c(Nc4nccc(-c5cccnc5)n4)c3)cc(C(F)(F)F)c2)cn1 [nilotinib]
Summary of the method: as §1

[2] = compound: Cc1nc(Nc2n[nH]c3c2CN(C(=O)N[C@H](CN(C)C)c2ccccc2)C3(C)C)c2sccc2n1
Summary of the method: as §1

dasatinib = compound: Cc1nc(Nc2ncc(C(=O)Nc3c(C)cccc3Cl)s2)cc(N2CCN(CCO)CC2)n1 [dasatinib]
Summary of the method: as §1

[3] = compound: Cc1ncc(-c2ccnc(Nc3ccc(S(C)(=O)=O)cc3)n2)n1C(C)C
Summary of the method: as §1

[4] = compound: Cn1cc(-c2ccc3c(c2)CCN3C(=O)Cc2cccc(C(F)(F)F)c2)c2c(N)ncnc21
Summary of the method: as §1

[5] = compound: Cn1cc(-c2ccc3nnc(C(F)(F)c4ccc5ncccc5c4)n3n2)cn1
Summary of the method: as §1

tipifarnib = compound: Cn1cncc1[C@@](N)(c1ccc(Cl)cc1)c1ccc2c(c1)c(-c1cccc(Cl)c1)cc(=O)n2C [tipifarnib]
Summary of the method: as §1

mubritinib = compound: FC(F)(F)c1ccc(/C=C/c2nc(COc3ccc(CCCCn4ccnn4)cc3)co2)cc1 [mubritinib]
Summary of the method: as §1

Target	log2 fold change (bafetinib)	log2 fold change [1]	log2 fold change (nilotinib)	log2 fold change [2]	log2 fold change (dasatinib)	log2 fold change [3]	log2 fold change [4]	log2 fold change [5]	log2 fold change (tipifarnib)	log2 fold change (mubritinib)
AGK (UniProt Q53H12)	inactive: -0.124	inactive: -0.011	inactive: 0.007	inactive: -0.008	inactive: 0.032	inactive: -0.014	inactive: 0.016	inactive: 0.026	inactive: 0.024	inactive: 0.026
ALDOA isoform 2 (UniProt P04075)	inactive: 0.023	inactive: -0.018	inactive: -0.013	inactive: 0.025	inactive: 0.041	inactive: -0.004	inactive: -0.002	inactive: -0.039	inactive: -0.019	inactive: 0.02
AMDHD2 isoform 3 (UniProt Q9Y303)	inactive: -0.007	inactive: -0.008	inactive: -0.053	inactive: -0.011	inactive: -0.038	inactive: 0.041	inactive: 0.05	inactive: 0.053	inactive: -0.123	inactive: 0.023
ALDH1L2 (UniProt Q3SY69)	inactive: -0.083	inactive: 0	inactive: -0.104	inactive: -0.136	inactive: -0.117	inactive: -0.019	inactive: 0.045	inactive: 0.109	inactive: -0.025	inactive: -0.03
ADRM1 (UniProt Q16186)	active: 0.238	inactive: 0.072	inactive: 0.028	inactive: 0.063	inactive: -0.036	inactive: 0.006	inactive: -0.061	inactive: -0.003	inactive: 0.01	inactive: -0.006
ALKBH6 isoform 2 (UniProt Q3KRA9)	inactive: -0.095	inactive: -0.009	inactive: -0.011	inactive: -0.009	inactive: 0.087	inactive: -0.042	inactive: -0.027	inactive: 0.002	inactive: 0.099	inactive: -0.042
ALDH1A1 (UniProt P00352)	inactive: -0.013	inactive: -0.037	inactive: 0.034	inactive: -0.009	inactive: 0.031	inactive: 0.007	inactive: 0.044	inactive: 0.011	inactive: -0.044	inactive: 0.049
AGTRAP (UniProt Q6RW13)	inactive: -0.08	inactive: 0.005	inactive: 0.103	inactive: 0.045	inactive: 0.03	inactive: -0.019	inactive: -0.029	inactive: -0.007	inactive: 0.094	inactive: -0.027
ADD3 (UniProt Q9UEY8)	inactive: 0.008	inactive: -0.008	inactive: 0.031	inactive: -0.004	inactive: 0.072	inactive: -0.096	inactive: 0.028	inactive: -0.016	inactive: 0.009	inactive: 0.038
AGO4 (UniProt Q9HCK5)	inactive: 0.015	inactive: -0.119	inactive: -0.061	inactive: 0.077	inactive: 0.045	inactive: 0.086	inactive: -0.037	inactive: -0.11	inactive: -0.024	inactive: -0.025
ALG1 (UniProt Q9BT22)	inactive: 0.016	inactive: 0.02	inactive: 0.065	inactive: 0.074	inactive: -0.059	inactive: 0.012	inactive: -0.017	inactive: -0.002	inactive: -0.049	inactive: 0.09
ADH5 (UniProt P11766)	inactive: -0.009	inactive: 0.006	inactive: -0.013	inactive: 0.023	inactive: 0.036	inactive: 0.013	inactive: 0.021	inactive: -0.006	inactive: -0.029	inactive: 0.028
AHSA1 (UniProt O95433)	inactive: -0.059	inactive: 0.013	inactive: -0.052	inactive: -0.035	inactive: -0.096	inactive: -0.018	inactive: 0.065	inactive: 0.009	inactive: -0.056	inactive: 0.038
AFP (UniProt P02771)	inactive: -0.063	inactive: -0.013	inactive: 0.064	inactive: 0.019	inactive: 0.111	inactive: 0.584	inactive: 0.179	inactive: -0.138	inactive: -0.027	inactive: -0.448
AK6 (UniProt Q9Y3D8)	inactive: 0.021	inactive: -0.018	inactive: -0.141	inactive: -0.143	inactive: -0.288	inactive: -0.015	inactive: 0	inactive: 0.025	inactive: -0.144	inactive: -0.114
AGPAT2 (UniProt O15120)	inactive: 0.053	inactive: 0.212	inactive: 0.022	inactive: -0.017	inactive: 0.03	inactive: -0.04	inactive: 0.089	inactive: -0.042	inactive: 0.155	inactive: -0.07
AHCY (UniProt P23526)	inactive: 0.016	inactive: -0.015	inactive: 0.01	inactive: 0.012	inactive: 0.054	inactive: -0.012	inactive: 0.031	inactive: -0.01	inactive: -0.008	inactive: 0.024
AKR7A2 (UniProt O43488)	inactive: -0.01	inactive: -0.022	inactive: 0.037	inactive: 0.007	inactive: -0.049	inactive: -0.025	inactive: 0.061	inactive: 0.022	inactive: -0.111	inactive: -0.039
ALG3 (UniProt Q92685)	inactive: -0.047	inactive: 0.075	inactive: 0.002	inactive: 0.021	inactive: 0.031	inactive: 0.017	inactive: -0.065	inactive: 0.013	inactive: -0.062	inactive: 0.006
AKT1S1 isoform 3 (UniProt Q96B36)	inactive: -0.05	inactive: -0.037	inactive: 0.047	inactive: 0.052	inactive: 0.037	inactive: -0.019	inactive: 0.012	inactive: -0.01	inactive: 0.066	inactive: 0.024
ADSL (UniProt P30566)	inactive: -0.042	inactive: -0.043	inactive: 0.013	inactive: -0.004	inactive: 0.041	inactive: -0.024	inactive: -0.006	inactive: 0.019	inactive: -0.003	inactive: 0.038
ADPGK (UniProt Q9BRR6)	inactive: -0.023	inactive: 0.024	inactive: -0.036	inactive: 0.062	inactive: -0.025	inactive: -0.044	inactive: -0.01	inactive: -0.005	inactive: 0.062	inactive: 0.022
ALDH16A1 (UniProt Q8IZ83)	inactive: -0.018	inactive: -0.043	inactive: -0.038	inactive: 0.001	inactive: -0.031	inactive: -0.008	inactive: 0.057	inactive: 0.014	inactive: -0.013	inactive: 0.021
AIMP1 isoform 2 (UniProt Q12904)	inactive: 0.168	inactive: -0.006	inactive: -0.071	inactive: 0.019	inactive: 0.044	inactive: 0.064	inactive: -0.158	inactive: -0.229	inactive: -0.041	inactive: -0.104
AKT1 (UniProt P31749)	inactive: 0.041	inactive: 0.004	inactive: 0.033	inactive: -0.275	inactive: -0.416	inactive: -0.158	inactive: 0.048	inactive: 0	inactive: -0.136	inactive: 0.033
AGO3 (UniProt Q9H9G7)	inactive: 0.008	inactive: -0.049	inactive: 0.087	inactive: 0.015	inactive: -0.093	inactive: -0.058	inactive: -0.337	inactive: 0.011	inactive: -0.014	inactive: -0.196
ALDOC (UniProt P09972)	inactive: -0.036	inactive: -0.023	inactive: -0.006	inactive: 0.013	inactive: 0.011	inactive: 0.001	inactive: 0.025	inactive: -0.009	inactive: -0.038	inactive: 0.048
AMPD3 isoform 4 (UniProt Q01432)	inactive: -0.003	inactive: -0.022	inactive: 0.036	inactive: -0.005	inactive: -0.088	inactive: -0.067	inactive: 0.065	inactive: 0.04	inactive: -0.017	inactive: -0.02
ALG14 (UniProt Q96F25)	inactive: -0.092	active: 0.461	inactive: 0.061	inactive: 0.026	inactive: 0.003	inactive: -0.033	inactive: 0.014	inactive: 0.126	inactive: -0.214	inactive: 0.003
AGPAT5 (UniProt Q9NUQ2)	inactive: -0.133	inactive: 0.021	inactive: 0.008	inactive: 0.04	inactive: -0.058	inactive: -0.035	inactive: 0.09	inactive: 0.045	inactive: 0.02	inactive: 0.014

Look-ups from the list.
AMPD3 isoform 4 (UniProt Q01432) | log2 fold change [4]: inactive: 0.065
AGO4 (UniProt Q9HCK5) | log2 fold change [1]: inactive: -0.119

Full records from above. Order of values: log2 fold change (bafetinib) | log2 fold change [1] | log2 fold change (nilotinib) | log2 fold change [2] | log2 fold change (dasatinib) | log2 fold change [3] | log2 fold change [4] | log2 fold change [5] | log2 fold change (tipifarnib) | log2 fold change (mubritinib)
ADH5 (UniProt P11766) reads inactive: -0.009 | inactive: 0.006 | inactive: -0.013 | inactive: 0.023 | inactive: 0.036 | inactive: 0.013 | inactive: 0.021 | inactive: -0.006 | inactive: -0.029 | inactive: 0.028
AHCY (UniProt P23526) reads inactive: 0.016 | inactive: -0.015 | inactive: 0.01 | inactive: 0.012 | inactive: 0.054 | inactive: -0.012 | inactive: 0.031 | inactive: -0.01 | inactive: -0.008 | inactive: 0.024
